“And” between values parts separate entries of the source, which are not always exact repeats. Equal entries are not always repeated. About 22,000 (6.9%) of roughly 320,000 compounds were called active. The inconclusive results got no clear call from the source; some entries with a clear call stand among them for comparison. Calls follow the shape of the dose curve; as a rule, active = well fitted inhibition curve with a large enough effect; inconclusive = small, poorly fitted or top-dose-only effect, or another doubt; inactive = no such curve, though single readings can be large or run the other way. A potency beside an inconclusive call is a rough fit, not a confirmed value.
Experiment: Primary qHTS for delayed death inhibitors of the malarial parasite plastid, 96 hour incubation
Settings: P. falciparum luciferase reporter growth; series mostly up to 28.7 µM; activity change, negative = inhibition: at the top concentration
Outline: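 Readout is luminescence from an integrated firefly luciferase in P. falciparum. Red cells, 2% hematocrit and 0.05% parasitemia final, were cultured with compound through two parasite generations (96 hours) at 37 C, 5% CO2.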
In the case of `COc1ccc(N2C3=C(C(=O)CC(C)(C)C3)C(c3ccccc3OC)C3=C2CC(C)(C)CC3=O)cc1`, the Potency is reported as inconclusive: 0.294 µM [inhibitor, full curve, poor fit]. In the case of `COc1ccc(S(=O)(=O)Nc2ccc(-c3ccc(N4CCCC4)nn3)cc2)cc1C`, the Potency is reported as inconclusive: 4.15 µM [inhibitor, partial curve]. With `Cc1ccc(C(=O)NNC(=O)c2ccoc2C)s1` the “activity change, negative = inhibition” value was inactive: 11.9%. For `CC1CCN(c2ccc(-c3ccc(NC(=O)c4ccco4)cc3)nn2)CC1`, the Potency was inconclusive: 11.7 µM [inhibitor, single point]. For `CC(=O)Nc1cc(-c2ccc(Cl)cc2)nn1-c1ccccc1`, the Potency was active: 9.28 µM. For `O=C1CCCC2=C1C(c1ccc(O)c(O)c1)c1c(ccc3ncccc13)N2` (stereo not given), the “activity change, negative = inhibition” value was inactive: -1.84%. For `O=C1c2ccccc2C(Nc2cccc(C(F)(F)F)c2)N1Cc1ccco1` (stereo not given), the “activity change, negative = inhibition” value was inactive: 4.34%. In the case of `COc1ccc(C2CCCN2C(=O)Nc2ccc(Cl)cc2)cc1OC` (stereo not given), the “activity change, negative = inhibition” value is reported as inactive: -26.1%. For `Cc1nn(Cc2c(Cl)cccc2Cl)c(C)c1N`, the Potency was inconclusive: 14.7 µM [inhibitor, single point]. In the case of `O=S(=O)(Nc1cccc(-c2ccc(N3CCCCCC3)nn2)c1)c1cccc(F)c1`, the “activity change, negative = inhibition” value is reported as inactive: -1.75%. In the case of `CS(=O)(=O)Cc1ccc(C(=O)N(CCc2ccccc2)Cc2ccccc2)cc1`, the “activity change, negative = inhibition” value is reported as inactive: -13.2%. In the case of `O=C(Cn1cc(C(F)(F)F)cc(Cl)c1=O)NC1CCS(=O)(=O)C1` (stereo not given), the Potency is reported as inconclusive: 3.29 µM [inhibitor, partial curve, poor fit]. For `COc1ccc(N2CCN(C(=O)Cc3ccc(-n4c(=O)[nH]c5ccccc5c4=O)cc3)CC2)cc1`, the Potency was inconclusive: 5.22 µM [inhibitor, partial curve, poor fit]. In the case of `CCN(CC)c1ccc(NC(=O)c2cccc(C)c2OC)c(C)c1`, the “activity change, negative = inhibition” value is reported as inactive: 24.4%. In the case of `C=CCOc1cccc(C(=O)N2CCC(CCC(=O)NC3CC3)CC2)c1`, the Potency is reported as inconclusive: 18.5 µM [inhibitor, single point]. With `CC(=O)N1/C(=C/c2ccc(N(C)C)cc2)C(=O)c2ccccc21` the Potency was inconclusive: 18.5 µM [inhibitor, single point]. In the case of `CN1C(=O)NC(c2cccc(F)c2)C2=C1CC(C)(C)CC2=O` (stereo not given), the “activity change, negative = inhibition” value is reported as inactive: -81.8%. For `CC(C)C[C@H](NC(=O)OC(C)(C)C)C(=O)N[C@@H](CO)[C@H](O)[C@@H]1C[C@@H]1C(=O)NC1CCCCC1`, the Potency was inconclusive: 9.28 µM [inhibitor, single point]. With `Cc1cccc(NC(=O)Cn2cnc3c(oc4ccccc43)c2=O)c1` the Potency was inconclusive: 2.08 µM [inhibitor, partial curve, poor fit]. For `COC(=O)c1[nH]c2ccc(F)cc2c1NC(=O)CCN1CC(C)OC(C)C1` (stereo not given), the Potency was inconclusive: 0.738 µM [inhibitor, full curve]. For `CC(=O)N1CCSc2ccc(S(=O)(=O)Nc3ccccc3C)cc21`, the Potency was inconclusive: 13.1 µM [inhibitor, partial curve, poor fit]. With `COc1cccc(-c2csc(NC3OC(=O)c4c3ccc(OC)c4OC)n2)c1` (stereo not given) the “activity change, negative = inhibition” value was inactive: 144%. With `Cc1ccc(C)c(-n2cc(-c3ccc(Cl)cc3)nc2SCC(=O)NC2CCS(=O)(=O)C2)c1` (stereo not given) the Potency was inconclusive: 13.1 µM [inhibitor, partial curve, poor fit]. For `COc1ccccc1OCC(O)CO` (stereo not given), the “activity change, negative = inhibition” value was inactive: 20.6%. With `O=C(Cc1ncc(C(F)(F)F)cc1Cl)N1CCN(c2ccccn2)CC1` the “activity change, negative = inhibition” value was inactive: 17.8%. In the case of `Fc1cccc(-c2cc3nc(-c4ccccc4)cc(N4CCC5(CC4)OCCO5)n3n2)c1`, the “activity change, negative = inhibition” value is reported as inactive: -16.7%. In the case of `COc1cccc(CNC(=O)CCCn2nc(C)c3c(C)n(-c4ccccc4)nc3c2=O)c1`, the Potency is reported as inconclusive: 16.5 µM [inhibitor, single point]. For `O=C(Nc1ccccc1C(=O)Nc1ccccc1)c1cccs1`, the Potency was inconclusive: 16.5 µM [inhibitor, partial curve, poor fit]. In the case of `COc1ccc(CSc2ccc(-c3nc4ccccn4c3NCc3ccccc3)cc2OC)cc1`, the Potency is reported as inconclusive: 10.4 µM [inhibitor, single point]. With `COCC1CCN(Cc2c(C(=O)N3CCc4ccccc4C3)nc3ccc(Cl)cn23)C1` (stereo not given) the Potency was inconclusive: 11.7 µM [inhibitor, single point]. For `COC(=O)C/C=N/N=C1/NC(=O)/C(=C/C(=O)O)S1`, the Potency was active: 9.28 µM. In the case of `CCc1ccccc1NC(=S)N(Cc1ccc(C(=O)O)cc1)Cc1ccc(OC)c(OC)c1`, the Potency is reported as inconclusive: 0.0657 µM [inhibitor, full curve, poor fit]. For `CC1CCN(c2ccc(/C=N\Nc3nncn3N)cc2[N+](=O)[O-])CC1`, the “activity change, negative = inhibition” value was inactive: 12.8%. For `COC(=O)C1(c2ccccc2)NC(c2ccc(O)cc2)C2C(=O)N(c3ccc4c(c3)OCO4)C(=O)C21` (stereo not given), the Potency was inconclusive: 9.28 µM [inhibitor, partial curve, poor fit]. In the case of `O=C(CN1CCN(c2ccc(F)cc2)CC1)Nc1nccs1`, the “activity change, negative = inhibition” value is reported as inactive: 1.88%. In the case of `COc1ccccc1-n1c(C)cc(/C=C2\C(=N)N3N=C(CC(=O)N4CCOCC4)SC3=NC2=O)c1C`, the Potency is reported as inconclusive: 10.4 µM [inhibitor, single point]. With `COc1ccc(-c2nn(Cc3ccccc3)cc2C(=O)N2CCN(c3ccccn3)CC2)cc1OC` the Potency was inconclusive: 18.5 µM [inhibitor, single point]. With `Cc1ccc(-c2nc(C3CCCN(S(=O)(=O)c4ccc(C)cc4)C3)no2)cc1` (stereo not given) the Potency was inconclusive: 9.28 µM [inhibitor, single point]. With `COc1cc2cc(CN(Cc3cccs3)C(=S)Nc3ccc(C)cc3)c(=O)[nH]c2cc1OC` the “activity change, negative = inhibition” value was inactive: -10.3%. For `COc1cccc(NC(=S)Nc2cccc3ccccc23)c1`, the “activity change, negative = inhibition” value was inactive: -0.203%. With `CCN(C(=O)C(C)N1C(=O)/C(=C/c2cccs2)SC1=S)C1CCS(=O)(=O)C1` (stereo not given) the Potency was inconclusive: 9.28 µM [inhibitor, partial curve]. In the case of `N#CC1=C(N)Oc2ccc3ccc(O)cc3c2C1c1cccnc1` (stereo not given), the Potency is reported as inconclusive: 0.0233 µM [inhibitor, full curve, poor fit]. In the case of `CC(C)CN1CN(Cc2ccccc2)CNC1=S`, the Potency is reported as inconclusive: 18.5 µM [inhibitor, single point]. For `CCCc1cc(NCCCn2ccnc2)n2nc(C)c(-c3ccccc3)c2n1`, the Potency was active: 0.415 µM. For `COc1cccc(-n2c(-c3ccco3)nc3nc4ccccc4nc32)c1`, the Potency was active: 3.29 µM. With `CCN(CC)S(=O)(=O)c1ccc2c(c1)N(CC(=O)N1CCN(c3ccc(F)cc3)CC1)C(=O)CO2` the Potency was inconclusive: 9.28 µM [inhibitor, partial curve]. For `CSc1ccccc1Nc1ncnc(N)n1`, the “activity change, negative = inhibition” value was inactive: -1.17%. For `Cc1cc2oc(C(=O)Nc3ccc(S(=O)(=O)Nc4ncccn4)cc3)c(C)c2cc1Cl`, the Potency was inconclusive: 18.5 µM [inhibitor, single point]. For `COC(=O)C1=C(c2ccccc2OCc2ccccc2)C[C@@H]2CC[C@H]1N2C(=O)NCCCOC(C)C`, the Potency was active: 5.22 µM. With `CCCN(CCC)C(=O)Cn1c(=O)c2ccccc2n2c(=S)sc(-c3ccccc3C)c12` the Potency was inconclusive: 1.47 µM [inhibitor, partial curve, poor fit]. In the case of `Cc1ccc(S(=O)(=O)NCc2ccc(C(=O)NC3CCC(O)CC3)cc2)cc1C` (stereo not given), the Potency is reported as inconclusive: 18.5 µM [inhibitor, single point]. With `Cc1ccc(Nc2ncccc2C(=O)O)cc1C` the Potency was “inactive”. With `CC(C)NC(=O)/C(C#N)=C/c1ccc(N(C)C)o1` the “activity change, negative = inhibition” value was inactive: 135%. In the case of `COC(=O)C1=C(C)N(Cc2ccccc2)C(=NCCc2cccnc2)N[C@H]1c1ccccc1`, the Potency is reported as active: 9.28 µM and active: 14.7 µM. In the case of `COc1cc(OC)c(C(=O)OC(C)C(=O)Nc2cccc(C(F)(F)F)c2)cc1OC` (stereo not given), the Potency is reported as active: 9.28 µM. With `COc1cccc(NC(=O)CSc2nc(=O)n(CCN(C)C)c3c2CCCC3)c1` the Potency was inconclusive: 3.7 µM [inhibitor, full curve]. With `CC(O)C(NS(=O)(=O)c1ccc(Cl)cc1)C(=O)OCC(=O)c1c[nH]c2ccccc12` (stereo not given) the “activity change, negative = inhibition” value was inactive: 0.203%. With `CCOC(=O)c1cc(-c2ccccc2)n(CC(=O)Nc2cc(OC)cc(OC)c2)c1C` the Potency was inconclusive: 18.5 µM [inhibitor, single point]. For `CCC(=O)N(CCC(c1ccco1)C(C)C)Cc1ccccc1` (stereo not given), the Potency was inconclusive: 16.5 µM [inhibitor, single point]. With `Cc1cccc(NC(=O)c2ccc(S(=O)(=O)NCc3cccnc3)cc2)c1` the Potency was inconclusive: 3.7 µM [inhibitor, partial curve]. For `CCC(Oc1ccc(C)cc1)C(=O)Nc1ccc(S(=O)(=O)Nc2cc(C)on2)cc1` (stereo not given), the Potency was active: 8.28 µM. In the case of `O=C(Nc1cccnc1Cl)C1CCCN(c2ncnc3c2nc2n3CCCCC2)C1` (stereo not given), the Potency is reported as active: 11.7 µM. For `CNc1ccc(Br)cc(C(=O)/C=C/c2ccc(Cl)cc2Cl)c1=O`, the Potency was inconclusive: 18.5 µM [inhibitor, single point]. In the case of `N/C(Cc1cccc2ccccc12)=N\OC(=O)c1ccc2c(c1)OCO2`, the Potency is reported as inconclusive: 1.31 µM [inhibitor, partial curve, poor fit]. With `O=C(CN1CCN(C(c2ccccc2)c2ccccc2)CC1)N1CCN(c2ccccc2)CC1` the Potency was inconclusive: 10.4 µM [inhibitor, single point]. With `CC(C)C(=O)Nc1nnc(COc2ccc(Cl)cc2)s1` the “activity change, negative = inhibition” value was inactive: 25.4%. For `Cc1ccc(C(=O)Nc2ccc(N3CCN(S(C)(=O)=O)CC3)cc2)cc1`, the “activity change, negative = inhibition” value was inactive: 15.8%. With `CCOC(=O)N/N=C/c1cn(Cc2ccccc2Cl)c2ccccc12` the Potency was inconclusive: 13.1 µM [inhibitor, partial curve, poor fit]. In the case of `Cc1cc(=O)oc2cc(NC(=O)C(C)Oc3ccc(F)cc3)ccc12` (stereo not given), the “activity change, negative = inhibition” value is reported as inactive: -12.9%. With `CC(C)c1nn2c(=O)cc(COc3cccc(NC(=O)c4ccco4)c3)nc2s1` the Potency was inconclusive: 18.5 µM [inhibitor, single point].

Reference: PubChem BioAssay AID504834 (National Center for Advancing Translational Sciences (NCATS), 2011)
% is scaled to controls: 0 for no effect and ±100 for the full control effect; potency is read from the fitted curve at half-maximal effect.
